Construct, isoform or probe ends are uncertain for at least one entry. For some of these results: Weaker means in comparison with the reference protein, sequence or condition of that experiment. For some of these results: At least one verdict rests on a figure or table, not on a statement of the authors.
Experiments:
Assay in all cases: EMSA
[1] = tested on: SNAPcΔ + Bdp1-ΔC; conditions: appreciable Bdp1 binding to SNAPc-DNA; EMSA: 500 mM ammonium acetate, 50 mM HEPES pH 7.9, 10% glycerol, 1 mM TCEP, 21 °C 20 min, diluted twofold (100 mM ammonium acetate, 40% glycerol) before loading; recombinant protein
[2] = tested on: SNAPcΔ + Bdp1-ΔN; conditions: reduced Bdp1 binding to SNAPc-DNA; EMSA: 500 mM ammonium acetate, 50 mM HEPES pH 7.9, 10% glycerol, 1 mM TCEP, 21 °C 20 min, diluted twofold (100 mM ammonium acetate, 40% glycerol) before loading; recombinant protein
[3] = tested on: SNAPcΔ; conditions: SNAPcΔ-DNA complex that recruits Bdp1; EMSA: 500 mM ammonium acetate, 50 mM HEPES pH 7.9, 10% glycerol, 1 mM TCEP, 21 °C 20 min, diluted twofold (100 mM ammonium acetate, 40% glycerol) before loading; recombinant protein
[4] = tested on: TBP (core) + Brf2 (62-419) + Bdp1-WT; conditions: EMSA: 500 mM ammonium acetate, 50 mM HEPES pH 7.9, 10% glycerol, 1 mM TCEP, 21 °C 20 min, diluted twofold (100 mM ammonium acetate, 40% glycerol) before …; recombinant protein; label: 5' Cy5 on strand 1
[5] = tested on: TBP (core) + Brf2 (62-419) + Bdp1-ΔN; conditions: EMSA: 500 mM ammonium acetate, 50 mM HEPES pH 7.9, 10% glycerol, 1 mM TCEP, 21 °C 20 min, diluted twofold (100 mM ammonium acetate, 40% glycerol) before …; recombinant protein; label: 5' Cy5 on strand 1
[6] = tested on: TBP (core) + Brf2 (62-419) + Bdp1 R334E; conditions: reduced Bdp1 recruitment to Brf2-TBP-DNA; EMSA: 500 mM ammonium acetate, 50 mM HEPES pH 7.9, 10% glycerol, 1 mM TCEP, 21 °C 20 min, diluted twofold (100 mM ammonium acetate, 40% glycerol) before loading; recombinant protein; label: 5' Cy5 on strand 1
[7] = tested on: TBP (core) + Brf2 (62-419) + Bdp1-ΔC; conditions: EMSA: 500 mM ammonium acetate, 50 mM HEPES pH 7.9, 10% glycerol, 1 mM TCEP, 21 °C 20 min, diluted twofold (100 mM ammonium acetate, 40% glycerol) before …; recombinant protein; label: 5' Cy5 on strand 1

Row | Sequence | binding result [1] | binding result [2] | binding result [3] | binding result [4] | binding result [5] | binding result [6] | binding result [7]
1 | CCATAAGTTATCCTAACCAAAAGATGATTTGA (double strand) [U6_2 PSE probe] | binds | binds more weakly | binds | – | – | – | –
2 | ATTTGATTGAAGGGCTTAAAATAGGTGTGACAGTAACC (double strand) [U6_2 TATA EMSA probe] | – | – | – | binds | binds | binds more weakly | binds

Source: publication PMC5526994 (Nature Communications, 2017)
